Our source for the binding values is paper PMC10941729.

Chains of the proteins cited; added tags and fusions are not shown.
UniProt P10415: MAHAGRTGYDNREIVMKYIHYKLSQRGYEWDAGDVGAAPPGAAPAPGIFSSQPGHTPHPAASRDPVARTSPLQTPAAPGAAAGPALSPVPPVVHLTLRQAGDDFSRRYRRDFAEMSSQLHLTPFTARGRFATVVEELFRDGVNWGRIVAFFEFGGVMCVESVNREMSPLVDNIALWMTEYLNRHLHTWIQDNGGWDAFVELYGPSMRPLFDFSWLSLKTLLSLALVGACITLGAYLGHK
UniProt Q14457: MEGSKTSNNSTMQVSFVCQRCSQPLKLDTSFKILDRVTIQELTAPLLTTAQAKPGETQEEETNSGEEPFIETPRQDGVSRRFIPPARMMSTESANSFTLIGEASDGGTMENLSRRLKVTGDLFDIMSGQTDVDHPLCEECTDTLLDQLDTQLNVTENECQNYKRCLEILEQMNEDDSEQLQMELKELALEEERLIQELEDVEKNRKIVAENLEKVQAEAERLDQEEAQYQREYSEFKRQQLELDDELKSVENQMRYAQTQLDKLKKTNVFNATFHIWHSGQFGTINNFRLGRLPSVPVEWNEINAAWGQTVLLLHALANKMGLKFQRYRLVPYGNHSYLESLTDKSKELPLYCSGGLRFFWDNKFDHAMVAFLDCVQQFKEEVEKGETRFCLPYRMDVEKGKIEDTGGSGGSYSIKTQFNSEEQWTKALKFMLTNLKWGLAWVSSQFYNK

No constants are given. Whether binding was seen depends on the method and setting. Binding seen in cells or lysates may run through a third protein. Some binding calls cover weakened binding; strength is not graded here.

The assay has as its target BCL2 (human (endogenous in TPC-1)) (UniProt P10415). The assay can be described thus: co-IP; anti-BCL2 antibody on magnetic beads, RIPA lysates of TPC-1 cells, incubated 1 hour at room temperature; blots with anti-Beclin1, Bax and BCL2 antibodies; cells untreated or treated with ABT737 for 8 hours.

As for Beclin1 (from UniProt Q14457 1-450), the binding result was “binds”.
